{
  "source": "PubChem BioAssay AID504444",
  "about": "(National Center for Advancing Translational Sciences (NCATS), 2011)",
  "note": "The whole screen tested about 360,000 compounds, of which about 7,500 (2.1%) were called active. The inconclusive results got no clear call from the source; some entries with a clear call stand among them for comparison. Calls follow the shape of the dose curve; as a rule, active = well fitted inhibition curve with a large enough effect; inconclusive = small, poorly fitted or top-dose-only effect, or effect the other way; inactive = flat fitted curve, though single readings scatter. A potency beside an inconclusive call is a rough fit, not a confirmed value. % is scaled to controls: 0 for no effect and ±100 for the full control effect; potency is read from the fitted curve at half-maximal effect.",
  "data": [
    {"test": "Nrf2 qHTS screen for inhibitors; also: nearly all actives have a fitted effect of over 60% in size", "conditions": "A549 ARE-Fluc reporter, luciferase luminescence, 18-24 h; activity change, negative = inhibition: at 46 µM (top of the series)", "how_it_was_run": "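Nrf2 activity is the BugLite luminescence, read 15 min after reagent at room temperature, following CellTiter-Fluor cytotoxicity readout (30 min, 37C). Compound titrations were applied for 18-24 h to 5000 A549 ARE_Fluc cells/well in 5% FBS OPTI-MEM.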", "values": [
      {"compound": "CCC(=O)Nc1ccc2c(c1)nc1n2CCN(C2CCCCC2)C1", "Potency": "inconclusive: 5.8 µM [activator, full curve]"},
      {"compound": "CCN(CC)c1ccc2cc(-c3nc(-c4ccc(OC)cc4)cs3)c(=O)oc2c1", "activity change, negative = inhibition": "inactive: 14%"},
      {"compound": "CN1CCN(c2ccc(NC(=O)c3cccs3)cc2)CC1", "Potency": "inconclusive: 0.164 µM [activator, full curve, poor fit]"},
      {"compound": "CCN(c1ccccc1)S(=O)(=O)c1cccc(C(=O)NCC(c2cccs2)N2CCOCC2)c1", "note": "(stereo not given)", "Potency": "inconclusive: 18.4 µM [falling, partial curve]"},
      {"compound": "CN(C)/C(CN1CCOCC1)=C1\\N=C(c2ccccc2)OC1=O", "Potency": "inconclusive: 32.6 µM [falling, single point]"},
      {"compound": "CCN(CC)c1ccc(CN2CCCCCC2)cc1", "activity change, negative = inhibition": "inactive: 3.55%"},
      {"compound": "CCN(C[C@H]1N[C@@](Cc2ccccc2)(C(=O)OC)[C@H]2C(=O)N(Cc3ccccc3)C(=O)[C@@H]12)C(=O)Nc1ccc(C(F)(F)F)cc1", "Potency": "inconclusive: 18.4 µM [falling, single point]"},
      {"compound": "O=C(CCCN1C(=O)c2ccccc2C1=O)NCCc1ccc(OC(F)F)cc1", "activity change, negative = inhibition": "inactive: -4.97%"},
      {"compound": "Cc1cc(C)cc(NC(=S)NCc2cccs2)c1", "Potency": "active: 23.1 µM"},
      {"compound": "CCCCC(=O)NC(c1ccc(N(CC)CC)cc1)c1ccc2cccnc2c1O", "note": "(stereo not given)", "Potency": "inconclusive: 4.61 µM [falling, full curve, poor fit]"},
      {"compound": "CCN(C(=O)c1cc2cc3ccc(OC)cc3nc2o1)c1cccc(C)c1", "Potency": "inconclusive: 25.9 µM [falling, partial curve, poor fit]"},
      {"compound": "O=C(NC1CCCCCCC1)c1cccs1", "Potency": "inconclusive: 7.31 µM [activator, partial curve]"},
      {"compound": "Cc1[nH][nH]c(=O)c1N=Nc1ccc(F)cc1", "Potency": "inconclusive: 14.6 µM [falling, partial curve, poor fit]"},
      {"compound": "O=C(NNC1=NS(=O)(=O)c2ccccc21)c1ccc(Cl)cc1", "Potency": "inconclusive: 8.2 µM [falling, partial curve]"},
      {"compound": "COc1ccc(S(=O)(=O)N2CCN(C/C=C/c3ccccc3)CC2)cc1NC(C)=O", "activity change, negative = inhibition": "inactive: 1.12%"},
      {"compound": "COc1ccc(C2C3C=CCC(c4cccc(/C=C/c5ccccc5)c4)C3C(=O)N2Cc2ccccc2)cc1Cl", "note": "(stereo not given)", "activity change, negative = inhibition": "inactive: 1.43%"},
      {"compound": "C=Cn1ccnc1P(=S)(c1ccc2c(c1)c1ccccc1n2CC)c1nccn1C=C", "Potency": "inconclusive: 20.6 µM [falling, partial curve]"},
      {"compound": "O=S(=O)(NC1CC1)c1ccc(S(=O)(=O)N2CCCc3ccccc32)cc1", "Potency": "active: 23.1 µM"},
      {"compound": "O=C(Nc1ccc(F)cc1F)c1ccc(-n2cccn2)c([N+](=O)[O-])c1", "Potency": "inconclusive: 8.2 µM [falling, partial curve, poor fit]"},
      {"compound": "COc1ccc(C)cc1-n1nnnc1SCc1cc(=O)n2cc(C)ccc2n1", "Potency": "active: 13 µM"},
      {"compound": "CCCN1C2=C(C(=O)CC(C)(C)C2)C(c2ccc(F)cc2)C2=C1c1ccccc1C2=O", "note": "(stereo not given)", "Potency": "inconclusive: 29.1 µM [falling, single point]"},
      {"compound": "COc1ccc(-n2c(=O)c3c(c4cc(OC)ccc4n3C)n(Cc3cc(C)ccc3C)c2=O)cc1", "Potency": "inconclusive: 1.46 µM [activator, full curve, poor fit]"},
      {"compound": "CC(C)n1c(SCC(=O)N2CCCC2)nc2c1c(=O)n(C)c(=O)n2C", "Potency": "inconclusive: 29.1 µM [activator, single point]"},
      {"compound": "Cc1cc(C(=O)OCC(=O)N2CCc3ccccc32)c(C)o1", "Potency": "inconclusive: 14.6 µM [activator, partial curve]"},
      {"compound": "Cc1ccccc1OCc1nc(-c2ccc(NC(=O)c3ccc4c(c3)OCO4)cc2)no1", "Potency": "inconclusive: 14.6 µM [falling, partial curve, poor fit]"},
      {"compound": "Cc1ccc(Cl)cc1S(=O)(=O)N1CCC(C(=O)NC2CCN(Cc3ccccc3)CC2)CC1", "Potency": "inconclusive: 29.1 µM [falling, single point]"},
      {"compound": "Cc1noc(C)c1COc1ccc(C(=O)OCC(=O)N2CC3(C)CC2CC(C)(C)C3)cc1", "note": "(stereo not given)", "Potency": "inconclusive: 11.6 µM [falling, partial curve, poor fit]"},
      {"compound": "COc1ccc(CN(Cc2ccco2)c2cnc(S(C)(=O)=O)nc2C(=O)Nc2ccc(F)cc2)cc1", "activity change, negative = inhibition": "inactive: 7.66%"},
      {"compound": "Cc1ccc(CC(=O)Nc2cc(C)ccn2)cc1", "Potency": "inconclusive: 13 µM [falling, partial curve, poor fit]"},
      {"compound": "CC(C)Cc1nc(N2CCCCC2)c(C#N)c2c1CCC2", "activity change, negative = inhibition": "inactive: 13%"},
      {"compound": "O=C1CC(C(=O)Nc2ccc(Cl)cc2)S/C(=N\\N=C\\c2ccco2)N1", "note": "(stereo not given)", "activity change, negative = inhibition": "inactive: -3.39%"},
      {"compound": "O=[N+]([O-])c1cc(C(F)(F)F)ccc1NCCOc1ccccc1", "Potency": "inconclusive: 32.6 µM [falling, single point]"},
      {"compound": "COc1ccc(S(=O)(=O)N(CC(=O)Nc2cccc(C(F)(F)F)c2)c2ccc(C)cc2)cc1", "Potency": "inconclusive: 29.1 µM [falling, single point]"},
      {"compound": "Cc1ccc(NC(=O)c2sc3nc4c(c(-c5ccco5)c3c2N)CCC4)cc1", "Potency": "active: 18.4 µM"},
      {"compound": "Cc1cccc(NS(=O)(=O)c2ccc(C(=O)NCCCN3CCOCC3)cc2)c1C", "Potency": "inconclusive: 29.1 µM [falling, partial curve, poor fit]"},
      {"compound": "CC(C)OCCCNC(=S)NNC(=O)c1ccc(Cl)c(Cl)c1", "Potency": "inconclusive: 0.731 µM [activator, full curve]"},
      {"compound": "CCOC(=O)c1c(C)[nH]c(C2=NNC(=Nc3ccccc3OC)SC2)c1C", "Potency": "inconclusive: 18.4 µM [falling, partial curve, poor fit]"},
      {"compound": "COc1ccccc1C=NN=C(NN=Cc1ccccc1OC)NN=Cc1ccccc1OC", "Potency": "inconclusive: 29.1 µM [falling, single point]"},
      {"compound": "O=C(Nc1c(-c2ccc(F)cc2)nc2ccccn12)c1ccccc1F", "activity change, negative = inhibition": "inactive: 9.18% [at 9.27 µM]"},
      {"compound": "O=c1[nH]nc(Cc2ncc(C(F)(F)F)cc2Cl)c2ccccc12", "Potency": "inconclusive: 20.6 µM [falling, single point]"},
      {"compound": "Cn1c(C(=O)NCc2ccco2)cc2c(=O)[nH]c3ccccc3c21", "Potency": "inconclusive: 4.11 µM [falling, full curve, poor fit]"},
      {"compound": "Cc1ccc(CNc2nc(-c3cccnc3)nc3ccccc23)cc1", "Potency": "inconclusive: 29.1 µM [falling, single point]"},
      {"compound": "COc1ccc(C2=NN(c3ccc(C(=O)O)cc3)C(c3ccc(OC)c(OC)c3)C2)cc1", "note": "(stereo not given)", "Potency": "inconclusive: 1.16 µM [activator, partial curve]"},
      {"compound": "CC(C)N1C(=O)S/C(=C/c2ccc(Sc3nc4ccccc4[nH]3)o2)C1=O", "Potency": "active: 14.6 µM"},
      {"compound": "COc1ccc(N2CCN(C(=O)c3ccc(-c4nc5ccccc5s4)o3)CC2)cc1", "Potency": "inconclusive: 7.31 µM [activator, partial curve, poor fit]"},
      {"compound": "COc1ccccc1N1CCN(c2ncnc3sc(C)c(-c4ccccc4)c23)CC1", "Potency": "inconclusive: 20.6 µM [falling, single point]"},
      {"compound": "Cc1onc(-c2ccccc2)c1-c1ccnc(N)n1", "activity change, negative = inhibition": "inactive: 3.03%"},
      {"compound": "Cc1ccsc1/C=N\\NC(=O)c1cc(C(C)(C)C)[nH]n1", "Potency": "inconclusive: 3.66 µM [activator, partial curve]"},
      {"compound": "Cc1ccc(NC(=O)Cn2c(=O)n(-c3ccccc3)c(=O)c3ccc(C(=O)NCc4ccc5c(c4)OCO5)cc32)c(C)c1", "Potency": "active: 7.31 µM"},
      {"compound": "COc1ccc(OC)c(Nc2nc(-c3c(C)nc4ncccn34)cs2)c1", "Potency": "inconclusive: 18.4 µM [falling, single point]"},
      {"compound": "OCC1CCCN(C(=S)NCCc2ccccc2)C1", "note": "(stereo not given)", "Potency": "inconclusive: 11.2 µM [activator, partial curve]"},
      {"compound": "Cc1cc(C(=O)CSc2nnc(NCc3ccccc3)s2)c(C)n1C", "activity change, negative = inhibition": "inactive: -20.8%"},
      {"compound": "COc1cccc(NC(=O)c2ccc3nc(C)sc3c2)c1", "Potency": "inconclusive: 5.17 µM [activator, partial curve, poor fit]"},
      {"compound": "N#CCCN(C(=O)COc1ccc(Cl)cc1Cl)c1ccccc1", "Potency": "inconclusive: 1.16 µM [activator, partial curve, poor fit]"},
      {"compound": "CC(CNC(=O)Cc1ccc(NC(=O)N2CCSc3ncccc32)cc1)c1ccccc1", "note": "(stereo not given)", "Potency": "inconclusive: 29.1 µM [falling, single point]"},
      {"compound": "CCOC(=O)c1ccc(NC(=S)Nc2ccc(C)cc2)cc1", "Potency": "inconclusive: 3.66 µM [activator, full curve]"},
      {"compound": "COC(=O)c1scc(-c2ccc(C)cc2)c1S(=O)(=O)Nc1ccc(N(C)C)cc1", "activity change, negative = inhibition": "inactive: 6.94%"},
      {"compound": "CCN(Cc1ccccc1)c1ccc(/C=N/NC(=O)c2cccc(S(=O)(=O)N3CCOCC3)c2)cc1", "Potency": "active: 11.6 µM"},
      {"compound": "Cc1ccc(S(=O)(=O)N2CCN(C(=O)COc3ccc(Br)cc3)CC2)cc1", "Potency": "inconclusive: 23.1 µM [falling, partial curve, poor fit]"},
      {"compound": "Cc1ccccc1NCc1cccn1-c1nnc(N2CCC(C)CC2)s1", "Potency": "inconclusive: 2.31 µM [activator, full curve, poor fit]"},
      {"compound": "Cc1ccc(S(=O)(=O)NCCCCCC(=O)Nc2ccccc2)cc1", "Potency": "inconclusive: 29.1 µM [falling, single point]"},
      {"compound": "CCNc1nc(OC)nc(Oc2ccc(C(=O)OC)cc2)n1", "Potency": "inconclusive: 0.184 µM [activator, full curve, poor fit]"},
      {"compound": "O=C(NC1CC2CCC(C1)N2Cc1ccccc1)c1cccc(F)c1", "note": "(stereo not given)", "Potency": "inconclusive: 6.51 µM [activator, partial curve, poor fit]"},
      {"compound": "COc1ccc(OCC(O)CN2CCN(c3ccc(Cl)cc3)CC2)cc1", "note": "(stereo not given)", "Potency": "inconclusive: 23.1 µM [falling, partial curve, poor fit]"},
      {"compound": "Cc1ccc(Nc2nc(N)nc(CSCCO)n2)cc1", "Potency": "inconclusive: 2.06 µM [activator, full curve, poor fit]"}
    ]}
  ]
}
